According to PubChem BioAssay (NCATS):
Where “and” joins values, the source holds several entries; their conditions need not be identical. Identical values can stand only once. This list was built around the results that the source calls inconclusive (neither active nor inactive); the mix of calls is not that of the screen. For some of these results: Potencies beside an inconclusive call are fits to weak or partial responses and may not hold up. Some structures have more than one record in an assay (separate samples or runs), and their calls can disagree. Calls of active or inactive are those of the source. The call rests on the fitted dose curve; in most records, active means well fitted curve in the direction sought with a large enough effect; inconclusive means small, poorly fitted or top-dose-only effect, or another doubt; inactive means no such curve, though single readings can be large; an effect the other way counts as inactive or inconclusive.

Legend:
[1] = Cell Proliferation Assay against the TMD8 Cell Line (Caspase readout at 16 hrs) (AID 651712); settings: TMD8 lymphoma cells, caspase activation luminescence; caspase activation: at 46.1 µM (top of the series); further: potency means the concentration at half of the fitted maximal effect
Method in brief: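 Apoptotic response of TMD8 cells was judged from caspase 3/7 activation following a 16 hour compound incubation at 37 °C. Luminescent signal was converted to percent activity, with DMSO set as 0% and 9.2 uM final bortezomib as 100%.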

[2] = Cell Proliferation Assay against the TMD8 Cell Line (Caspase readout at 8 hrs) (AID 651713); settings: TMD8 lymphoma cells, caspase activation luminescence; caspase activation: at 46.1 µM (top of the series); further: potency means the concentration at half of the fitted maximal effect
Method in brief: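 TMD8 cells (500/well) in phenol red-free RPMI with 5% FBS were treated with compounds for 8 h at 37C, 5% CO2. Caspase-Glo 3/7 luminescence was read after 15 min at room temperature and normalised to DMSO (0%) and 9.2 uM bortezomib (100%).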

[3] = Identifying Small Molecule Inhibitors of Pancreatic Cancer Stem Cells (A2780, Spheroid) (AID 1259357); settings: Potency: A2780 spheroid viability; viability (percent of control): at 46.1 µM (top of the series);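 further: spheroids pre-formed over 14 days in stem cell medium on hydrogel; compound exposure lasted 48 h before the ATP luminescence read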
Method in brief: (§1)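 Pre-formed 14-day tumor spheroids or adherent cells dosed and incubated 48 h, 37C, 5% CO2. Viability assessed by CellTiter-Glo.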

[4] = Identifying Small Molecule Inhibitors of Pancreatic Cancer Stem Cells (SN12C, Spheroid) (AID 1259360); settings: Potency: SN12C spheroid viability; further: potency means the concentration at half of the fitted maximal effect
Method in brief: as §1

[5] = P-glycoprotein substrates identified in KB-8-5-11 adenocarcinoma cell line, qHTS therapeutic library screen (AID 1346987); further: potency means the concentration at half of the fitted maximal effect; nearly all actives have a fitted effect of over 65% in size
Method in brief: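 KB-8-5-11: colchicine-selected sub-line of KB-3-1 over-expressing P-gp; assay medium lacked colchicine. 72 h drug exposure at 37 degree C, CellTiter-Glo.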

[6] = qHTS of pediatric cancer cell lines to identify multiple opportunities for drug repurposing: Primary screen for BT-12 cells (AID 1347101); further: potency means the concentration at half of the fitted maximal effect; nearly all actives have a fitted effect of over 25% in size
Method in brief: (§2)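 Cells (500-1,000/well) rested 5 h, then received compounds for 48 h; metabolically active cells were measured by CellTiter-Glo luminescence. Final concentrations spanned up to 46 µM (MIPE, 11-point) or 0.59 nM-46 µM (NPC, 8-point) in primary screens, 11-point in follow-ups.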

[7] = qHTS of pediatric cancer cell lines to identify multiple opportunities for drug repurposing: Primary screen for Rh18 cells (AID 1347102); further: potency means the concentration at half of the fitted maximal effect; nearly all actives have a fitted effect of over 65% in size
Method in brief: as §2

[8] = qHTS of pediatric cancer cell lines to identify multiple opportunities for drug repurposing: Primary screen for Rh30 cells (AID 1347107); further: nearly all actives have a fitted effect of over 75% in size; further: potency means the concentration at half of the fitted maximal effect
Method in brief: as §2

[9] = qHTS of pediatric cancer cell lines to identify multiple opportunities for drug repurposing: Primary screen for Rh41 cells (AID 1347108); further: potency means the concentration at half of the fitted maximal effect; nearly all actives have a fitted effect of over 70% in size
Method in brief: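 Following a 5-hour attachment period, cells at 500-1,000/well received compounds and were cultured for 48 hours. CellTiter-Glo was added and luminescence read to estimate viable, metabolically active cells.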

[10] = Quantitative High-Throughput drug screen in 47 multiple myeloma cell lines against the NCATS MIPE library collection: JIM1_ECACC cell viability assay (AID 1918964; further: potency means the concentration at half of the fitted maximal effect)
Method in brief: (§3)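 We plated 500 myeloma cells per well, pinned in MIPE 4.0 compounds, and incubated for 48 hours at 37C. ATP was then quantified with CellTiter-Glo, with DMSO and media-only wells defining 100% and 0%.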

[11] = Quantitative High-Throughput drug screen in 47 multiple myeloma cell lines against the NCATS MIPE library collection: KMS20_JCRB cell viability assay (AID 1918973); settings: CellTiter-Glo ATP, 48 h; viability (% of DMSO): at 45.8 µM (top of the series); further: potency means the concentration at half of the fitted maximal effect; nearly all actives have a fitted effect of over 45% in size
Method in brief: as §3

[12] = Quantitative High-Throughput drug screen in 47 multiple myeloma cell lines against the NCATS MIPE library collection: KMS21BM_JCRB cell viability assay (AID 1918974); settings: ATP luminescence, 48 h; viability: at 45.8 µM (top of the series); further: potency means the concentration at half of the fitted maximal effect
Method in brief: as §3

[13] = Quantitative High-Throughput drug screen in 47 multiple myeloma cell lines against the NCATS MIPE library collection: MOLP8_DSMZ cell viability assay (AID 1918977); settings: MOLP8 myeloma viability, CellTiter-Glo ATP luminescence, 48 h; viability (% of control): at 45.8 µM (top of the series); further: nearly all actives have a fitted effect of over 45% in size; further: potency means the concentration at half of the fitted maximal effect
Method in brief: (§4)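 Plated at 500 cells per well, myeloma lines received MIPE 4.0 compounds by pin tool. Following 48 h culture at 37 °C, CellTiter-Glo luminescence gave viability relative to DMSO and media-only controls.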

[14] = Quantitative High-Throughput drug screen in 47 multiple myeloma cell lines against the NCATS MIPE library collection: LP1_DSMZ cell viability assay (AID 1918982); further: potency means the concentration at half of the fitted maximal effect; nearly all actives have a fitted effect of over 35% in size
Method in brief: as §4

[15] = Quantitative High-Throughput drug screen in 47 multiple myeloma cell lines against the NCATS MIPE library collection: L363_DSMZ cell viability assay (AID 1918984); settings: L363 myeloma viability, CellTiter-Glo ATP luminescence, 48 h; viability (% of control): at 45.8 µM (top of the series); further: nearly all actives have a fitted effect of over 40% in size; further: potency means the concentration at half of the fitted maximal effect
Method in brief: as §4

[16] = test system: CRL-7250; test: Cytotoxic Profiling of Annotated Libraries Using Quantitative High-Throughput Screening (AID 1296008); settings: Five cell lines viability, CellTiter-Glo ATP luminescence, 48-72 h; max response: stronger effect = lower value; further: nearly all actives have a fitted effect of over 60% in size; further: potency means the concentration at half of the fitted maximal effect; on max response: on the % scale 0 is the no-effect control and ±100 the full control effect
Method in brief: (§5)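 Cytotoxicity was measured as CellTiter-Glo ATP luminescence, read after 10 min at room temperature. Compound treatment of the cells lasted 48 or 72 hr at 37 degrees Celsius in a qHTS format.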

[17] = Identifying Small Molecule Inhibitors of Pancreatic Cancer Stem Cells (Panc1, Adherent) (AID 1259362); settings: Potency: viability unless noted; viability, % of control: at 46.1 µM (top of the series) unless noted; further: potency means the concentration at half of the fitted maximal effect
Method in brief: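 Luminescent ATP readout (CellTiter-Glo) quantifies surviving cells after a 48 h drug incubation. Normalization uses DMSO wells as no inhibition and media-only wells as full inhibition; bortezomib served as positive control.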

[18] = test system: HEK293; test: Cytotoxic Profiling of Annotated Libraries Using Quantitative High-Throughput Screening (AID 1296008); settings: Five cell lines viability, CellTiter-Glo ATP luminescence, 48-72 h; max response: stronger effect = lower value; further: nearly all actives have a fitted effect of over 60% in size; further: potency means the concentration at half of the fitted maximal effect; on max response: on the % scale 0 is the no-effect control and ±100 the full control effect
Method in brief: as §5

| Structure (SMILES) | Potency [1] | Potency [2] | Potency [3] | Potency [4] | Potency [5] | Potency [6] | Potency [7] | Potency [8] | Potency [9] | Potency [10] | Potency [11] | Potency [12] | Potency [13] | Potency [14] | Potency [15] | Potency [16] | Potency [17] | Potency [18] | max response [18] |
| --- | --- | --- | --- | --- | --- | --- | --- | --- | --- | --- | --- | --- | --- | --- | --- | --- | --- | --- | --- |
| CC[C@@H]1C(=O)N(C)c2cnc(Nc3ccc(C(=O)NC4CCC(N5CCN(CC6CC6)CC5)CC4)cc3OC)nc2N1C(C)C (some centres undefined) | inconclusive: 3.32 µM [activator, full curve] | active: 26.4 µM | inactive | inconclusive: 20.9 µM [cytotoxic, single point] | active: 372 nM and active: 326 nM and active: 231 nM | active: 6.11 µM | active: 6.62 µM | active: 16.6 µM | active: 2.35 µM | inconclusive: 118 nM [cytotoxic, full curve, poor fit] | active: 4180 nM | active: 0.935 µM | active: 3.72 µM | inconclusive: 235 nM [cytotoxic, full curve, poor fit] | active: 14.8 nM | active: 332 nM and inconclusive: 2.31 µM [inhibitor, partial curve, poor fit] and active: 14.6 µM | – | – | – |
| C[C@@H](Oc1cc(-n2cnc3ccc(CN4CCN(C)CC4)cc32)sc1C(N)=O)c1ccccc1C(F)(F)F | inconclusive: 20.9 µM [activator, partial curve] | – | inactive | inconclusive: 23.5 µM [cytotoxic, single point] | – | active: 24.3 µM | – | inconclusive: 18.7 µM [cytotoxic, partial curve] | – | inconclusive: 1320 nM [rising, full curve, poor fit] | inconclusive: 11800 nM [cytotoxic, partial curve, poor fit] | inconclusive: 29.6 µM [rising, partial curve, poor fit] | inconclusive: 18.7 µM [cytotoxic, partial curve, poor fit] | inconclusive: 74.3 nM [cytotoxic, full curve, poor fit] | active: 11.8 nM | inconclusive: 418 nM [inhibitor, full curve] | active: 3.7 nM | – | – |
| Cc1cncc2cccc(S(=O)(=O)N3CCCN(C(=O)CN)C[C@@H]3C)c12 | – | – | – | – | inconclusive: 14.8 µM [inhibitor, partial curve, poor fit] and inconclusive: 4.11 µM [inhibitor, partial curve] | inconclusive: 19.3 µM [cytotoxic, partial curve] | – | inconclusive: 23.5 µM [cytotoxic, single point] | inconclusive: 13.2 µM [cytotoxic, partial curve] | inconclusive: 833 nM [rising, full curve, poor fit] | inconclusive: 29.6 nM [rising, full curve, poor fit] | – | inactive | – | inactive | inconclusive: 33.2 µM [inhibitor, single point] and inconclusive: 7.31 µM [inhibitor, partial curve] | – | inconclusive: 29.1 µM [inhibitor, single point] | – |
| COc1ccc(C(=O)CC2(O)C(=O)Nc3c(Cl)ccc(Cl)c32)cc1 (centres undefined) | – | – | – | – | active: 2.64 µM and active: 1.16 µM | active: 3.43 µM | inconclusive: 1.87 µM [cytotoxic, full curve] | inactive | – | active: 1050 nM | inconclusive: 469 nM [cytotoxic, full curve, poor fit] | – | inconclusive: 1.66 µM [cytotoxic, full curve, poor fit] | inconclusive: 5900 nM [cytotoxic, full curve] | – | inconclusive: 29.6 µM [inhibitor, single point] and inconclusive: 29.1 µM [inhibitor, single point] | – | inconclusive: 4.61 µM [inhibitor, full curve, poor fit] | – |
| COc1c(OCCCN2CCOCC2)ccc2c3n(c(=NC(=O)c4cnc(N)nc4)nc12)CCN3 | – | – | – | – | inconclusive: 1.82 µM [inhibitor, partial curve] | inconclusive: 4.21 µM [cytotoxic, partial curve, poor fit] | – | inconclusive: 0.229 µM [cytotoxic, full curve] | – | active: 7.2 nM | active: 51.2 nM | inconclusive: 18.2 µM [rising, partial curve] | active: 0.0288 µM | inconclusive: 32.3 nM [cytotoxic, full curve] | inconclusive: 18200 nM [rising, partial curve, poor fit] | inconclusive: 53.1 nM [inhibitor, full curve] | – | active: 363 nM and active: 42.2 nM | – |
| CC(C)Nc1cc(-c2c[nH]c(C(=O)N[C@H](CO)c3cccc(Cl)c3)c2)c(Cl)cn1 | – | – | – | – | inconclusive: 29.1 µM [inhibitor, single point] | – | – | – | – | – | – | – | – | – | – | inconclusive: 5880 nM [inhibitor, full curve, poor fit] | – | active: 26.3 µM | inactive: -74.1% |
